Source: patent US20230140798A1, “SYNTHETIC PEPTIDES DIRECTED AGAINST THE METABOTROPIC GLUTAMATE RECEPTOR 5” (Lactocore, Inc., priority 2020, published 2023)
Part of at least one peptide drawing is inferred or uncertain, most often the ends. Where a SMILES comes first, the peptide text is derived from it.

Chains of the proteins cited; added tags and fusions are not shown. Residues count along the entry.
UniProt P41594, 21-1212: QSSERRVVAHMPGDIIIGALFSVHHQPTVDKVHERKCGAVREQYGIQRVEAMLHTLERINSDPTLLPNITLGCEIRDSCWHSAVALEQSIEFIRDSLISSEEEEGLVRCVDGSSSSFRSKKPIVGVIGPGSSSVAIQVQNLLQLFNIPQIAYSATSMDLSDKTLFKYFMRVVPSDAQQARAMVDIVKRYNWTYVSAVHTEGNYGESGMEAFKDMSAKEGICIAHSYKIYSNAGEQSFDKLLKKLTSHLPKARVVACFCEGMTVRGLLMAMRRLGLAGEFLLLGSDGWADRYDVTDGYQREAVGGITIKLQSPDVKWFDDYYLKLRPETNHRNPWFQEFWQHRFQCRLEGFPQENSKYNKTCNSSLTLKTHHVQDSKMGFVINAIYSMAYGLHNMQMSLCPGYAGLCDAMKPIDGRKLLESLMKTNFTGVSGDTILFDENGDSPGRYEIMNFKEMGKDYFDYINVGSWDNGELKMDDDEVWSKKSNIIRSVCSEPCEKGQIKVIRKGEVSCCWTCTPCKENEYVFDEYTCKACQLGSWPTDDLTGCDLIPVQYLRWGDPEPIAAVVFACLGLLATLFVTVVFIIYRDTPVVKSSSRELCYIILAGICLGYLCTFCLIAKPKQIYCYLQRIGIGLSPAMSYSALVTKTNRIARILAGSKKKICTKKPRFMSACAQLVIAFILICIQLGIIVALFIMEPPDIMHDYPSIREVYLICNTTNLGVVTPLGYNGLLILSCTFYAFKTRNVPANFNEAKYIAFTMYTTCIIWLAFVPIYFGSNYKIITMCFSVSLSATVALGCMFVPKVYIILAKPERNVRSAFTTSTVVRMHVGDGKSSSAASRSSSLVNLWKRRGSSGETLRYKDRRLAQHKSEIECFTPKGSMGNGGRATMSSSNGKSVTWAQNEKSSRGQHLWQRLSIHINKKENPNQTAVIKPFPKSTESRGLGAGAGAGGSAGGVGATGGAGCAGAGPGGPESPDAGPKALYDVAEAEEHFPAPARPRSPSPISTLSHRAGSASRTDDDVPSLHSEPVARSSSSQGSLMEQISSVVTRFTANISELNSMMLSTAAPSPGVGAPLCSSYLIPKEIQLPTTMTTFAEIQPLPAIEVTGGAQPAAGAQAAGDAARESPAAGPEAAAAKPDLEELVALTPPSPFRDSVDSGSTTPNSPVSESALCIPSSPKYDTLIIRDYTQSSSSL

What was measured:
Sprague-Dawley rats = assay: Novel Object Recognition (NOR); assay type: in vivo; details: 0.1, 0.3 and 1 mg/kg i.n., 30 minutes prior
Camk2n1 mRNA = assay: Real-time PCR, frontal cortex: Camk2n1; assay type: in vivo, rats; details: 1 mg/kg i.n., 2 h after treatment
BALB/C mice [1] = assay: Elevated Plus Maze test, mice; assay type: in vivo; details: 1 mg/kg i.p.; for distance travelled: 30 minutes after injection
Description: (§1) After an adaptation period, the test substance was intraperitoneally injected into mice. Behavioral parameters were measured in 30 minutes after injection. No more than one test was performed per day. The tests were administered as follows: day 1—the Open field test, day 8—the Elevated plus maze test, days 15-16—the Porsolt Forced Swim (two-day modification) test.
The test consists of two closed and two open arms located opposite each other (arm length 30 cm). The height of the sides of the closed arms is 15 cm. The entire installation is raised 70 cm above the floor. Open arms have a bright uniform illumination of 400 lux, closed −30-40 lux. The animal is placed in the center of the maze, with its head facing an open arm. Within five minutes, the Noldus EthoVision XT program (for behavior tracking) automatically records the following behavior parameters: total distance traveled (in cm), time spent moving (at a speed of more than five cm/s), time spent immobile (at a speed of less than 0.2 cm/s), average and maximum velocity, the number of episodes of mobility, and freezing. The same set of parameters, as well as the latent period and the time spent, are recorded for the central sector, the open and closed arms separately.

BALB/C mice [2] = assay: Open Field test, mice; assay type: in vivo; details: 1 mg/kg i.p., 30 minutes after injection
Source text: Eighty male BALB/C mice were used as subjects in this example. Body weight of each specimen at the beginning of the experiment was between about 18 grams and about 20 grams. All animals were free from species-specific pathogens (specific pathogen free (SPF) status according to the Federation of European Laboratory Animal Science Associations (FELASA) list, 2014). The animals were kept in conditions of free access to water and food. The room was air-conditioned (exchange rate not less than 15 r/h) with a 12 h:12 h light-dark cycle (lights on at 09:00 am), air temperature 20-24°±2° C. (possible fluctuations of the limits no more than 2° C. per day), 30-70% humidity. For the study, the mice were separated into six different groups and the tested substances were administered to the groups as shown in Table 1. Drugs were daily prepared in fresh saline, according to the dosage. For intranasal administration (i.n.), a volume of 20 μl was used, for intraperitoneal (i.p.)—200 μl.
as §1
The test is an arena with a diameter of 63 cm, illuminated by bright light (500 Lx). Recorded parameters: total distance traveled (in cm), time spent moving (at a speed of more than five cm/s), time spent immobile (at a speed of less than 0.2 cm/s), average and maximum velocity, the number of episodes of motor activity and freezing. The same set of parameters, as well as the latent period and the time spent are recorded for the central sector. Defecation, rears (setting the animal on its hind legs) are evaluated visually. The test is designed to assess the level of motor and exploratory activity.

Wistar rats = assay: Open Field test in Acute Foot Shock (AFS) stress model; assay type: in vivo
Description: KEDV (SEQ ID NO: 4) and RAHE (SEQ ID NO: 3) (Lactocore Inc.) were administered intranasally (i.n), daily for 10 days at a dose of 1 mg/kg and 5 mg/kg. Peptides were prepared freshly each day in saline. The solution for i.n. administration of 5 mg/kg in a volume of 15 μl (single administration) contained 1.3 mg KEDV (SEQ ID NO: 4) or RAHE (SEQ ID NO: 3), and a solution for intranasal administration of 1 mg/kg in a volume of 10 μl (single administration) contained 0.26 mg KEDV (SEQ ID NO: 4) or RAHE (SEQ ID NO: 3).
The tetracyclic antidepressant Maprotiline (MAP, “Lyudiomil”), was used as a drug of comparison. Animals received a daily intraperitoneal injection (i.p) of MAP for ten days (M9651, Merck, in a dose of 4.5 mg/kg, dissolved in saline, 250 μl per administration).
Stimulation was performed automatically using a software randomizer.
The OF test is a classic method for assessing the level of motor activity and exploratory behavior of rodents in new stressogenic conditions. The test was performed in a cage of 90×90×45 cm without a roof, the floor of which was laid out on squares 15×15 cm and lit from above by a 60 W lamp. On the 5th day after stressing in the LH model, the rat was placed in the center of the OF. The following parameters were measured for 5 minutes: latency to start of moving, the number of crossed squares, the duration of rears and freezing.

human mGluR5 = biological target: T1, human mGluR5 (Homo sapiens, UniProt P41594); assay: Sodium glutamate-evoked [Ca^2+] responses in CHO-mGluR5 cells (calcium-flux imaging); assay type: cell-based; details: 1 mM Glu-Na; for concentration at which Glu-Na-induced [Ca^2+] responses were reduced: tested 0.02, 2, 20 and 200 μM
T1 construct: expressed in transfected cells; host or cells: CHO cells carrying pcDNA6/TR (T-REx system)
Source text: CHO-mGluR5 cells with tetracycline-induced stable expression of human mGluR5.
The CHO cell line stably expressing human mGluR5 was generated using T-Rex System (Thermo Fisher Scientific Inc., Waltham, Mass., USA) according to the manufacturer's' instructions. Briefly, cDNA encoding human mGluR5 was subcloned into inducible expression vector pcDNA4/TO and was transfected into CHO cells carrying regulatory vector pcDNA6/TR that expresses the tetracycline repressor. After 2 weeks of selection using Blasticidin (5 µg/ml) and zeocin (250 µg/ml), pools of cells were screened for the expression of mGluR5 in the agonist-induced [Ca^2+] uptake assay. Positive cells were expanded and used. mGluR5 expression was induced by adding tetracycline (up to 1 µg/ml) 16 h before testing.
Fluorescent assays were performed using NOVOstar (BMG LABTECH, Ortenberg, Germany). CHO-mGluR5 cells were seeded into black-walled clear-bottomed 96-well plates at a density of 75,000 cells per well (complete media without antibiotics and containing 1 µg/ml of tetracycline to induce receptor expression) and were cultured overnight at 37° C. The cells were then loaded with the cytoplasmic calcium indicator Fluo-4AM using Fluo-4 Direct™ Calcium Assay Kits (Thermo Fisher Scientific Inc., Waltham, Mass., USA), and incubated in the dark at 37° C. for 60 min, and then at 25° C. for 60 min. The buffer alone (control) or the buffer containing different concentrations of KEDV (SEQ ID NO: 4) peptide, RAHE (SEQ ID NO: 3) peptide (0.02, 2, 20 and 200 μM) or MPEP (0.1, 1, 10, 100 μM) (Sigma Aldrich, USA) were added to the cells. After a 3-min incubation at 37° C., changes in cell fluorescence ([…]) were monitored before and after the addition of the mGLuR5 agonist (1 mM sodium glutamate—Glu-Na). The measurements were performed at pH 7.4 and 37° C.

[3] = 1 mg/kg i.n. daily for 10 days after AFS
[4] = 5 mg/kg i.n. daily for 10 days after AFS

Structure (SMILES)	memory formation / cognitive functions (novel object preference) (Sprague-Dawley rats)	expression levels of Camk2n1 gene (Camk2n1 mRNA)	freezing time (BALB/C mice [1]) [s]	number of open arm entries (BALB/C mice [1])	distance travelled (BALB/C mice [1]) [cm]	number of rears (BALB/C mice [2])	freezing behavior vs stressed saline-treated animals (Wistar rats; [3])	freezing behavior vs stressed saline-treated animals (Wistar rats; [4])	effect on Glu-Na-evoked [Ca^2+] currents (human mGluR5; 0.02, 2, 20 and 200 μM)	concentration at which Glu-Na-induced [Ca^2+] responses were reduced (human mGluR5) [µM]	number of rears on the closed arms (BALB/C mice [1])	number of center entries (BALB/C mice [2])
CC(C)[C@H](NC(=O)[C@H](CC(=O)O)NC(=O)[C@H](CCC(=O)O)NC(=O)[C@@H](N)CCCCN)C(=O)O [KEDV] (H-KEDV-OH; N-terminus and C-terminus assumed)	did not affect memory formation	did not affect expression levels	35.5 ± 5.5	increase in the number of open arm entries	963.9±43.3	19±2.7	significant reduction of freezing behavior	significant reduction of freezing behavior	significantly abolish	≥ 0.02	–	–
C[C@H](NC(=O)[C@@H](N)CCCNC(=N)N)C(=O)N[C@@H](Cc1c[nH]cn1)C(=O)N[C@@H](CCC(=O)O)C(=O)O [RAHE] (H-RAHE-OH; N-terminus and C-terminus assumed)	did not affect memory formation	did not affect expression levels	–	–	1021±76.6	19.6±3.4	significant reduction of freezing behavior	significant reduction of freezing behavior	–	20	12.8±1.9	19.2±3.4
